Results on 3 molecules are retold here after patent publication US20240092920A1 (KEYMED BIOSCIENCES, published 2024).

The chains behind the UniProt entries cited, without tags or fusion partners. Where a name states a change or a piece, a line headed by the entry shows the natural chain unless it says otherwise. A line that says so, or that is headed by a name, gives the form on record, which may keep a tag or linker. Residues count along the entry.
hIL-4Rα, full length, on stably transfected HEK293 cells (P24394, residues 26-825): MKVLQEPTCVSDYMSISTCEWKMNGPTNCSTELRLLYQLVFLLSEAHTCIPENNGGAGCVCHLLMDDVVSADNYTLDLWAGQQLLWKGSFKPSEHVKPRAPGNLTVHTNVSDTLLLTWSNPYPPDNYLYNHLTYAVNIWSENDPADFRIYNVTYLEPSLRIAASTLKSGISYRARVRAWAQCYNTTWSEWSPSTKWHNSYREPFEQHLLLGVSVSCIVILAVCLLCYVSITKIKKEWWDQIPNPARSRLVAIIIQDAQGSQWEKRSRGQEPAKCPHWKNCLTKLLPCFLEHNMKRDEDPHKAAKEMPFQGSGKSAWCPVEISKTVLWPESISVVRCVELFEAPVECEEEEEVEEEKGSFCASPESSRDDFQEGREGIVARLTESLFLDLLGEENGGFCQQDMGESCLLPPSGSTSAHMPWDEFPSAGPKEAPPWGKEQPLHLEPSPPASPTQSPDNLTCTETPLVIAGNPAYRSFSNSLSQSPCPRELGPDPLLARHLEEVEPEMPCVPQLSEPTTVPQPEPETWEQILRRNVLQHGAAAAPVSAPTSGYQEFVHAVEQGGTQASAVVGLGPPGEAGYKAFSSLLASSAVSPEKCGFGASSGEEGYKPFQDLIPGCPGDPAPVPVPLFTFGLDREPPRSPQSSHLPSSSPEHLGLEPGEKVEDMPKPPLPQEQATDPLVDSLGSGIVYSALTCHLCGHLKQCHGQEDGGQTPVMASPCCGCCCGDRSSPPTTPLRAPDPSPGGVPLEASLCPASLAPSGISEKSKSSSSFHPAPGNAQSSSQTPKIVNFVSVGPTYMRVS
recombinant protein of human IL-4Rα extracellular region (P24394, form named): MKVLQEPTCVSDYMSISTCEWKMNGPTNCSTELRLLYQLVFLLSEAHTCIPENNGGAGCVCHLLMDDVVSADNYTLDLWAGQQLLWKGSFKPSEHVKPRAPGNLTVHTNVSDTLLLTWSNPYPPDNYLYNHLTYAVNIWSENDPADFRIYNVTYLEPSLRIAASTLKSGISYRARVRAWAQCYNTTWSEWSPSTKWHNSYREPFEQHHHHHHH

Where a chain is given by its changes, count along the chain named. These are yes or no findings as the source states them, for the method shown. Some binding calls cover weakened binding; strength is not graded here.

The target of test [1] is hIL-4Rα, full length, on stably transfected HEK293 cells (human) (UniProt P24394). The test can be described thus: flow cytometry on HEK293-hIL-4Rα stably transfected cells, purified Fab, anti-human IgG Fab'2-AF647. Background: Flow cytometry measures light scatter and fluorescence of single cells or particles in a stream.
Test [2] has as its target recombinant protein of human IL-4Rα extracellular region (human) (UniProt P24394). The experiment in a line: BLI (Fortebio), biotin-labeled hIL-4Rα on SA probe, Fab at 100 ug/ml. For orientation: Biolayer interferometry detects binding as a change in optical thickness at a sensor tip.
In test [3] the target is hIL-4Rα, full length, on stably transfected HEK293 cells (human) (UniProt P24394). The test can be described thus: flow cytometry on 293-hIL-4Rα stably transfected cells, anti-human IgG Fab'2-AF647.
Test [4] has the same target. The test can be described thus: flow cytometry blocking assay on 293-hIL-4Rα stably transfected cells; blocked ligand: biotin-labeled IL-4 at 0.15 ug/ml, SA-PE.

B1: Clone 35A7 (antibody, V domains shown)
VH: QVQLKQSGAELVKPGASVKMSCTASGNIFSGYNMHWIKQTPGQGLEWIGGLHPGNGDTSYNQKFKGKATLTADKSSNTAYMQLSSLTSEDSAVYYCALTTAGRAWFAYWGQGTLVTVSA
VL: DIQMNQSTSSLSASLGDRVTISCRASQDISNYLNWYQQKPDGTIKLLIYYTSRLYSGVPSRFSGSGSGTDYSLTISNLEEEDIATYFCQQGNTIPYTFGGGTKLEIK
notes: Chimeric IgG (section 6)
Consider B1, for which the binding entry in test [1] was “binds”.

B2: Clone 2F8 (antibody, V domains shown)
VH: B1 VH with K5Q, A9T, T23K, G26V, I28T, S30T, T58S, K67R, A107P
VL: B1 VL with N5T, I44V, Y55H, E80Q, I94L, Y96W
Take B2: in test [2], the binding result is “binds”.

B3: 1021/1013 (antibody, IgG1, V domains shown)
VH: EVQLVESGGGLVKPGGSLRLSCAASGFTFSRYAMSWVRQAPGKGLEWVSTISSGGSYTNYADSVKGRFTISRDNVKNTLYLQMNSLRAEDTAVYYCARATARATEFAYWGQGTLVTVSS
VL: DIQMTQSPSSLSASVGDRVTITCQASQDISNYLNWYQQKPGKAPKLLIYYTSRLHSGVPSRFSGSGSGTDYTLTISSLQPEDFATYFCQQGNTLPLTFGGGTKVEIK
notes: Humanized candidate antibody; also called 1021/1013-IgG; VH1021 with VL1013
Take B3: the binding result in test [3] and in test [4] was “binds” each time.
